# From PubChem BioAssay AID540256 (National Center for Advancing Translational Sciences (NCATS), 2011)
# The campaign covered roughly 300,000 compounds. About 3,700 (1.2%) were called active. Inconclusive results, whose numbers are uncertain, are shown with a selection of clear calls. Calls come from the whole dose curve; tested in HEK293 cells. A potency beside an inconclusive call is a rough fit, not a confirmed value.
# Experiment: qHTS for Inhibitors of binding or entry into cells for Lassa Virus; note: nearly all actives have a fitted effect of over 50% in size
# Conditions: Lassa virus pseudotype entry inhibition, cell reporter; series mostly up to 37.9 µM
# Potency is the fitted concentration of half-maximal effect.
row,SMILES,Potency
1,O=C(c1cc2c(s1)CCCCC2)N1CCN(c2ncccn2)CC1,inactive
2,CC(C)(C)c1ccc(C(=O)Nc2cccc3c(=O)[nH][nH]c(=O)c23)cc1,active: 7.08 µM
3,CC(C)(C)C(=O)Nc1cccc(-c2nc3ccccc3c(=O)o2)c1,"inconclusive: 7.3 µM [inhibitor, partial curve, poor fit]"
4,C#Cc1cccc(Nc2ncnc3ccc(OCCCCNCCS(C)(=O)=O)cc23)c1,"inconclusive: 35.3 µM [inhibitor, partial curve, poor fit]"
5,Cn1c(SCC(=O)OC2CCCCC2)nnc1-c1ccc(S(=O)(=O)N2CCCC2)cc1,"inconclusive: 25.9 µM [activator, single point]"
6,CN(CCOc1ccccc1)c1ccc(S(=O)(=O)N2CCCCC2)cn1,"inconclusive: 12.6 µM [inhibitor, single point]"
7,S=C(Nc1cccnc1)N1CCN(c2ccccc2Cl)CC1,"inconclusive: 1.26 µM [inhibitor, single point]"
8,Cc1cc(C)nc(N/N=C/c2ccc(N3CCOCC3)cc2)n1,inactive
9,CCCC(=O)N(c1ccc(OCC)cc1)C1C=CS(=O)(=O)C1 (stereo not given),"inconclusive: 0.116 µM [activator, full curve, poor fit]"
10,COc1ccc(C(=O)NCc2nnc(SCC(=O)c3ccccc3)o2)cc1,"inconclusive: 0.501 µM [inhibitor, full curve, poor fit]"
11,Cc1ccc(-c2nnn(CC(=O)Nc3cccc4c3CCCC4)n2)o1,"inconclusive: 20 µM [inhibitor, single point]"
12,CC1CCCCN1S(=O)(=O)c1ccc(C(=O)Nc2nnc(-c3ccccc3Cl)o2)cc1 (stereo not given),"inconclusive: 14.1 µM [inhibitor, partial curve, poor fit]"
13,Cc1cc(OCC(=O)N(C)c2ccccc2)cc2c1C(=O)CC(C)(C)O2,"inconclusive: 11.2 µM [inhibitor, partial curve, poor fit]"
14,Cc1ccc(S(=O)(=O)c2c(C)cc(C)nc2Oc2cccc(C(F)(F)F)c2)cc1,"inconclusive: 11.2 µM [inhibitor, partial curve, poor fit]"
15,c1ccc(P(c2ccccc2)c2ccccn2)cc1,"inconclusive: 5.62 µM [inhibitor, single point]"
16,CCCOc1ccc(OC(=O)c2cn(-c3ccc(OC)cc3)c(=O)c3ccccc23)cc1,"inconclusive: 6.31 µM [inhibitor, full curve, poor fit]"
17,CCOC(=O)CN(c1ccccn1)S(=O)(=O)c1ccccc1,inactive
18,O=C(NC(=S)Nc1ccccc1CO)C1CCCCC1,inactive
19,CCC(=O)n1nc(-c2ccccc2)nc1NCc1ccccc1,"inconclusive: 4.11 µM [activator, single point]"
20,CN(O)C(=S)c1ccccc1,active: 6.31 µM
21,COc1ccccc1N(CC(=O)NC(C)(C)C)C(=O)Cn1nnc(-c2ccc(C)o2)n1,"inconclusive: 0.0065 µM [inhibitor, full curve, poor fit]"
22,COC(=O)C1CCN(C(=O)CSc2nnc(-c3ccncc3)o2)CC1,inactive
23,COc1ccc(C(=O)NC(=S)Nc2ccccc2N2CCCCC2)cc1[N+](=O)[O-],"inconclusive: 35.5 µM [inhibitor, single point]"
24,COc1cc(Cn2c(-c3nonc3N)nc3ccccc32)ccc1C,"inconclusive: 1.58 µM [inhibitor, full curve, poor fit]"

row,SMILES,Potency
1,COc1ccc(C(C)=O)cc1COC(=O)c1cc2ccccc2cc1O,"inconclusive: 35.5 µM [inhibitor, single point]"
2,Cc1cccc(C(=O)NC(=S)Nc2cccc3nc(C)ccc23)c1,"inconclusive: 35.5 µM [inhibitor, single point]"
3,O=C(CN(CC1CCCO1)C(=O)c1nsc(Cl)c1Cl)NC1CCCC1 (stereo not given),inactive
4,Cc1c(NC(=O)c2sc3ccccc3c2Cl)cccc1-c1nc2ccccc2o1,inactive
5,O=C(COC(=O)c1c(Cl)cccc1Cl)Nc1ccccc1Br,inactive
6,O=C(c1ccccc1)c1ccc(N2CCOCC2)cc1,"inconclusive: 3.16 µM [activator, partial curve, poor fit]"
7,Nc1ccccc1SCC(=O)Nc1nccs1,"inconclusive: 1.26 µM [activator, single point]"
8,Cc1ccc(NC(=O)C2CCCO2)cc1[N+](=O)[O-] (stereo not given),inactive
9,c1ccc2c(c1)[nH]c1c(N3CCN(C4CCCCC4)CC3)ncnc12,inactive
10,Cc1nc(NC(C)c2ccccc2)c2oc3ccccc3c2n1 (stereo not given),"inconclusive: 11.2 µM [inhibitor, partial curve]"
11,CCOC(=O)c1ccc(COC(=O)c2ccc3c(c2)-c2ccccc2C3=O)cc1,"inconclusive: 2.24 µM [inhibitor, full curve, poor fit]"
12,O=C(CNc1ccccc1)N/N=C/c1ccc([N+](=O)[O-])cc1,inactive
13,O=C(/C=C/c1ccccc1)N(Cc1cccc(Cl)c1)C1CCS(=O)(=O)C1 (stereo not given),inactive
14,COc1ccc(S(=O)(=O)N(CC(=O)NC2CC2)c2ccc(C)cc2)cc1OC,"inconclusive: 7.08 µM [inhibitor, partial curve, poor fit]"
15,CC(C)c1cc(C(=O)NCc2ccccc2)no1,inactive
16,COC(=O)Nc1nc2ccc(Br)cc2s1,"inconclusive: 6.31 µM [activator, single point]"
17,O=C(Nc1ccc(F)cc1)c1cc(-c2ccncc2)nc2c(Cl)cccc12,"inconclusive: 3.55 µM [inhibitor, partial curve, poor fit]"
18,O=c1c2cnn(-c3ccccc3Cl)c2ncn1Cc1cccnc1,inactive
19,CCC1(c2ccc(Cl)cc2)NC(=O)N(CC(=O)N2CCN(C(=O)c3ccco3)CC2)C1=O (stereo not given),"inconclusive: 35.5 µM [inhibitor, single point]"
20,COc1ccc(CNc2ncnc3c2[nH]c2cc(OC)c(OC)cc23)cc1,inactive
21,NC(=S)N=Nc1c(O)[nH]c2ccccc12,"inconclusive: 1.26 µM [inhibitor, single point]"
22,Cc1cnc(NC(=O)CSC(=S)N2CCOCC2)s1,inactive
23,CCCN(CC1CCCO1)C(=O)c1cc(COc2ccc(F)cc2F)on1 (stereo not given),"inconclusive: 4.47 µM [activator, single point]"
24,C/C(=N\Nc1nc2ccccc2s1)c1cccs1,active: 6.51 µM

row,SMILES,Potency
1,O=C(CSc1ncn[nH]1)NCCc1ccccc1,inactive
2,O=C(OCc1cc(=O)n2nc(C3CC3)sc2n1)c1ccccc1Cl,"inconclusive: 35.5 µM [inhibitor, single point]"
3,Cc1cc(-c2n[nH]c(=S)n2CC(C)C)cs1,"inconclusive: 22.4 µM [activator, single point]"
4,CCOC(=O)N1CCC(N(CCOC)C(=S)Nc2cccc(SC)c2)CC1,"inconclusive: 10 µM [inhibitor, partial curve, poor fit]"
5,O=C(C(=O)N1CCc2ccccc2C1)c1cn(CC(=O)N2CCCC2)c2ccccc12,"inconclusive: 0.794 µM [inhibitor, partial curve, poor fit]"
6,Cc1cccc(N2CCN(C(=O)c3ccc4c(Cl)c5c(nc4c3)CCCC5)CC2)c1C,inactive
7,CCOc1ccccc1NC(=O)C1=C(C)Nc2ncnn2C1c1cccs1 (stereo not given),"inconclusive: 2.51 µM [inhibitor, partial curve, poor fit]"
8,CC1(C)O[C@H]2O[C@H]([C@H](O)CON=C3[C@H]4CCn5c(=O)n(-c6ccccc6)c(=O)n5[C@@H]4[C@H](O)[C@@H]4O[C@H]34)[C@H](O)[C@@H]2O1,"inconclusive: 1.19 µM [activator, single point]"
9,CCCS(=O)(=O)c1ncc(Cl)c(C(=O)Nc2c(C(=O)Nc3ccccc3)oc3ccccc23)n1,"inconclusive: 7.08 µM [inhibitor, partial curve]"
10,COc1cccc(N2C(N)=NC(N)=NC2(C)C)c1,"inconclusive: 22.4 µM [inhibitor, single point]"
11,O=C(Nc1cnn(Cc2ccc(F)cc2)c1)c1cc(-c2cccs2)on1,inactive
12,O=C1CN(C(=O)CSc2nc3ccccc3c(=O)n2Cc2ccc(F)cc2)c2ccccc2N1,"inconclusive: 25.9 µM [inhibitor, single point]"
13,O=C(CN1CCN(Cc2ccccc2F)C1=O)NCc1ccco1,inactive
14,Cc1ccc(-n2ncc(C(=O)NC3CCCCC3)c2C2CCN(C(=O)OC(C)(C)C)CC2)cc1,"inconclusive: 6.31 µM [inhibitor, single point]"
15,C=CCOc1ccc(Oc2cc(C)nc(SC)n2)nn1,"inconclusive: 35.5 µM [activator, single point]"
16,Cc1ccc(NC(=S)NC(=O)c2ccc(-c3ccccc3)cc2)c(C)c1,"inconclusive: 20 µM [inhibitor, partial curve, poor fit]"
17,C/C(=N/NC(=O)c1cc(C(C)C)[nH]n1)c1cccs1,"inconclusive: 6.51 µM [inhibitor, partial curve, poor fit]"
18,COc1ccc(N2CCN(S(=O)(=O)c3cnc[nH]3)CC2)cc1,"inconclusive: 14.1 µM [activator, partial curve, poor fit]"
19,CCOC(=O)c1ccc2c(c1)nc(SCC(=O)c1ccco1)n2CC,"inconclusive: 6.51 µM [inhibitor, partial curve, poor fit]"
20,Cc1nc(-c2noc(-c3cccc(Cl)c3)n2)c(C(F)(F)F)o1,inactive
21,COCCCNCCCCOc1ccccc1-c1ccccc1,"inconclusive: 1.3 µM [inhibitor, single point]"
22,CCc1cccc(CC)c1NC(=O)c1ccc(-n2cncn2)nc1,"inconclusive: 3.26 µM [activator, partial curve, poor fit]"

# Four of these compounds, set out differently.
row | SMILES | Potency
2 | O=C(OCc1cc(=O)n2nc(C3CC3)sc2n1)c1ccccc1Cl | inconclusive: 35.5 µM [inhibitor, single point]
9 | CCCS(=O)(=O)c1ncc(Cl)c(C(=O)Nc2c(C(=O)Nc3ccccc3)oc3ccccc23)n1 | inconclusive: 7.08 µM [inhibitor, partial curve]
15 | C=CCOc1ccc(Oc2cc(C)nc(SC)n2)nn1 | inconclusive: 35.5 µM [activator, single point]
18 | COc1ccc(N2CCN(S(=O)(=O)c3cnc[nH]3)CC2)cc1 | inconclusive: 14.1 µM [activator, partial curve, poor fit]
